Measurements from “University of Dundee, Small-Polar-MMV Screening Library” (2021), ChEMBL document CHEMBL3988442.

Each number is a percent effect as filed.
How 0% and 100% were set is not recorded. Most values in the screen are low, and negative values occur.
This is an unselected part of the compounds tested.
A dash means the value is not listed here; it may have been measured.

Mtb growth Cornell: 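Whole-cell assay for inhibitors of Mycobacterium tuberculosis growth, labelled Cornell in the record; the read-out is not stated. The concentration is filed as 10 mM, unlikely as a test dose, so the dose is not known. Higher means stronger inhibition (inferred from two other growth screens of the library). Of about 53,000 compounds tested this way, about 900 (1.7%) reached 50% or more in at least one test.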
Mtb heat-shock: 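Assay on Mycobacterium tuberculosis, filed only as a heat shock assay from Cornell; the read-out is not stated. The concentration is filed as 10 mM, unlikely as a test dose, so the dose is not known. Higher reads as stronger inhibition (inferred: compounds with an IC50 in retests scored well above the rest). About 69,000 compounds were tested under these conditions; 1.4% (about 930) showed 50% or more at least once.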

structure | Mtb growth Cornell | Mtb heat-shock
O=C(CCc1cscn1)N1CCCC1c1noc(C2CC2)n1 (stereo not given) | 2.905% | 2.859%
O=C(CC1OCCc2ccccc21)NCCn1cccc1 (stereo not given) | - | -12%
Cc1ccsc1C(O)CNC(=O)Cc1ccc(F)cc1 (stereo not given) | -34.66% | -22.05%
O=C(c1cc2cccc(F)c2[nH]1)N1C[C@@H](O)[C@H](N2CCOCC2)C1 | 25.18% | -18.81%
CN(c1ncccc1C#N)C1CCN(CCc2ccccn2)CC1 | -1.661% | -30.16%
CNC(=O)Cc1ccc(NC(=O)NCC(C)c2ncc(C)s2)cc1 (stereo not given) | 8.035% | 1.349%
CCNC(=O)NCc1ccccc1NS(=O)(=O)c1ccccc1 | -21.13% | 35.07%
Cc1ccc(O)c(C(=O)NCCS(=O)(=O)Cc2ccccc2)c1 | - | -16.34%
CN1CCN(C[C@H]2CC[C@@H](Cc3ccc4c(c3)OCO4)O2)CC1 | -11.52% | 1.805%
O=S(=O)(N1CCCC1)N1CC(c2ccnc(Nc3ccccn3)n2)C1 | -21.17% | -15.66%
CC(C)n1cc(CN2CCCN(C(=O)C3CCOC3)CC2)cn1 (stereo not given) | -38.23% | -25.66%
Cc1ccc(NC(=O)CNC(C)CN2CCOCC2)c(F)c1 (stereo not given) | 27.06% | -12.98%
[H][C@@]12CO[C@@H](CNC(=O)c3cnn(C)c3)[C@]1([H])CCN(S(C)(=O)=O)C2 | -17.6% | 13.04%
COc1ccc(NC(=O)N2CCC3(CC2)NC(=O)CC3C(=O)O)cc1Cl (stereo not given) | - | -3.754%
CCN(CC)c1ncc(CNCC2CCCn3ccnc32)s1 (stereo not given) | -4.875% | -2.91%
CN(C)c1nccc(N(C)C2CCCCC2)n1 | - | -26.48%
COc1cccc(C(C)N2CCN(S(=O)(=O)c3ccccc3)CC2)c1 (stereo not given) | 2.27% | -12.09%
O=C(Cn1c(=O)oc2ccccc21)N1Cc2cncnc2C1 | 9.044% | 3.627%
CC(C)(C)c1cnc(CN2CCC(CO)CC2)o1 | - | 8.944%
CC(C)CCn1c(=O)n(CCn2cccc2)c2cc(C(=O)O)cnc21 | 37.36% | 19.23%
COCc1cnc2n1CCN(C1CCCC1)C2C.O=C(O)C(F)(F)F (stereo not given) | -14.97% | -72.99%
CCn1nc(CC(C)C)cc1C(=O)NCc1c(C)cc(C)nc1OC | -9.703% | 10.38%
CCCn1nnc(NCc2ccccc2OCc2ccc(Cl)cc2)n1 | - | 20.91%
COc1ccccc1NCC(=O)NCc1cc[nH]n1 | -15.33% | 15.18%
CNC(=O)NC(=O)C(C)N1CCN(C2CCCC2)CC1 (stereo not given) | 10.1% | 3.663%
O=C(C1CC(=O)N(c2ccccc2Br)C1)N1CCCCCC1 (stereo not given) | -3.773% | 1.396%
Cc1noc(-c2ccnc(N3CCN(C4CCOCC4)CC3)c2)n1 | -26.9% | -3.501%
CCc1nc2n(n1)CC(NCC(=O)Nc1cc(C)on1)CC2 (stereo not given) | -38.9% | -14.07%
Cc1ccc(-n2cccn2)cc1S(=O)(=O)N1C[C@H](C2CC2)[C@@H](N)C1 | -7.99% | 10.13%
Cn1cnnc1-c1ccnc(NCc2ccc(Br)cc2)c1 | - | -17.31%
CCc1cc(N2CCCC(c3noc(CC)n3)C2)ncn1 (stereo not given) | 5.485% | -19.73%
Cc1ccc(NCCNC(=O)c2cc(CC(C)C)n[nH]2)nn1 | 25.3% | -0.8525%
CC(C(=O)N1CCOCC1)S(=O)(=O)Cc1noc(C(C)(C)C)n1 (stereo not given) | -59.39% | -9.73%
CCc1ocnc1C(=O)N1CCOC(c2nc(C(C)C)n[nH]2)C1 (stereo not given) | 34.07% | -1.529%
CN(Cc1nnc2n1CCC2)S(=O)(=O)c1cc(Br)ccc1Br | 9.271% | 13.19%
CN(C)C(C(=O)NCCS(=O)(=O)N(C)C)c1cccc(F)c1 (stereo not given) | 4.306% | -6.006%
[H][C@]12CCN(C(=O)C3CCCO3)CC[C@@]1([H])S(=O)(=O)N(Cc1ccccc1)C2 (stereo not given in full) | 18.35% | -23.11%
Cc1cc(C)c2c(C(=O)N(C)C)cc(-c3cnc(N)nc3)nc2c1 | -42.16% | 8.754%
CC(C)NC(=O)c1nnn(-c2cccc(C(F)(F)F)c2)c1N | 7.839% | 4.096%
COc1ccc(CN2CCC(O)CC2)c(OC)c1 | - | -21.16%
CC(c1nc(C2CC2)no1)N1CCc2c(ncn2C2CC2)C1 (stereo not given) | -34.39% | 10.31%
Oc1cccc(CNC2CCN(CCc3ccncc3)CC2)c1 | - | -18.56%
Cc1ccc(F)c(OC2(C(=O)O)CCN(C(=O)c3ccccc3)CC2)c1 | -2.558% | 6.63%
CN1CCC(NC(=O)Cc2csc(C(C)(C)C)n2)CC1 | -43.66% | 17.75%
Cc1ccc(F)c2c1N(C(=O)c1cn(CC(=O)N(C)C)nn1)CCC2 | -43.42% | 0.0504%
COc1ccc(CN(C)C(=O)Cc2c(C)nn(C)c2C)cc1F | 9.057% | 7.866%
O=C(CC1CCc2ccccc21)NC1(C(=O)O)CCCC1 (stereo not given) | - | -8.976%
Cc1nccn1Cc1nnc(C2CCCN(Cc3cccnc3)C2)n1C (stereo not given) | -8.064% | -0.3528%
O=C(O)C(F)(F)F.O=C(c1ncccn1)N1CCC[C@]2(C[C@@H](Oc3ncccc3F)CO2)C1 | -38.21% | -26.7%
O=S1(=O)c2cccnc2OC(Cc2ccccc2)CN1CC1CC1 (stereo not given) | -6.698% | -19.15%
Cn1cc(-c2cnc(N3CCOCC3)nc2)cc1C(=O)NC1CC1 | -4.041% | -10.11%
COc1ccc(OCc2nc(C(=O)N3C[C@H](O)[C@@H](N(C)C)C3)co2)cc1 | 10.09% | -14.16%
CC(C)c1nnc(CN2CCCC2Cn2cncn2)o1 (stereo not given) | 2.092% | -13.98%
Cc1cc(CNC(=O)NCc2cccs2)no1 | -55.65% | -5.736%
CC(Cn1cccn1)NCc1nc(-c2ccccn2)no1 (stereo not given) | -4.372% | -7.12%
Cc1cccc2c(CCNC(=O)[C@H](N)c3ccccc3)c[nH]c12 | 19.89% | 7.607%
Cc1ccc(OCC(O)CN(C)CC(=O)NC(C)C)c(C)c1 (stereo not given) | - | -3.077%
Cn1ccc(CN2CCCN(c3nccs3)CC2)cc1=O | - | -5.369%
Cc1ccc2[nH]c(-c3cn(C4CCNCC4)nn3)nc2c1C | -14.19% | -6.803%
CO[C@H]1CN(C(=O)c2cc3ccccc3[nH]2)CC[C@H]1N | - | -28.77%
c1ccc(N(CCn2cncn2)CC2CC2)cc1 | -28.11% | -32.54%
CCc1cccc(C)c1NC(=O)C1CC(=O)N(Cc2ccccn2)C1 (stereo not given) | -11.01% | 13.29%
NC(=O)CN1CCN(S(=O)(=O)N2CCCC2c2ccco2)CC1 (stereo not given) | 1.553% | -23.43%
CNC(=O)c1n[nH]c2c1C(c1cccc3[nH]ccc13)CC(=O)N2 (stereo not given) | 8.671% | -11.3%
Cc1cc(NCC2CCCCC2)n2ncnc2n1 | 16.75% | 17.63%
COc1ccc(C(C)N(C)Cc2c(C(C)(C)C)[nH]c3ncccc23)cc1 (stereo not given) | 17.92% | -20.99%
CCc1ncc(C(=O)NCCNC(=O)Cc2ccc(F)cc2)s1 | 21.14% | -2.865%
O=C(Nc1ccc(Br)cc1F)c1ccc(N2CCCCC2)nn1 | -16.44% | -20.87%
CCc1nn(C)c(Cl)c1CN1CCN(c2nc(C(N)=O)cs2)CC1 | -22.76% | -9.362%
Cc1ccsc1[C@@H]1CCN(C(=O)CCC(=O)N2CCCCCC2)C[C@H]1O | 14.49% | 4.876%
Cl.NC(=O)C1CN(c2ccc(F)cc2)CCN1 (stereo not given) | 6.369% | 7.399%
CCC(C)NC(=O)Cn1ccc2c(C)nn(CC)c2c1=O (stereo not given) | 5.346% | -10.24%
O=C(O)C(F)(F)F.[H][C@@]12C[C@@H](c3nc(C4CC4)cs3)O[C@]1([H])CN(c1ncc(F)cn1)C2 | 17.98% | 32.77%
COc1ccc(CCn2cnc(C#N)n2)cc1 | -0.6283% | 9.663%
Cc1cnn(CC2CCCN2Cc2noc(C3CC3)n2)c1 (stereo not given) | -1.56% | -4.445%
Cc1noc(Cl)c1CC(=O)N1CCCC1Cn1cccn1 (stereo not given) | 17.08% | 6.402%
CN(Cc1cnn(C)c1)C1CCN(c2cccc(-c3cscn3)c2)CC1 | - | -26.11%
CNc1cc(C2CN(C(=O)c3cnn(C)c3)CCO2)nc(C)n1 (stereo not given) | -26.82% | -45.31%
O=C(O)C(F)(F)F.O=C(O)C(F)(F)F.[H][C@]12C[C@@H](CN3CCCC3)N(C)[C@@]1([H])CCN(C(=O)c1cccn1C)C2 | 13.41% | -26.65%
Cc1cccc(C2(O)CCN(C(=O)c3ccccn3)CC2)c1C | 10.15% | -1.289%
COc1ccc(CN2CCC3(CC(=O)N(c4cccc(F)c4)C3)C2)cc1.O=C(O)C(F)(F)F (stereo not given) | 9.83% | 10.3%
CC(C)c1nccn1C1CCCN(C(=O)c2cnc[nH]2)C1 (stereo not given) | -8.625% | 13.94%
Cc1cnn(CC2CCCCN2CCC(=O)Nc2cc(C)on2)c1 (stereo not given) | - | 14.52%